Values quoted from earlier work as cited in US10330673B2, “Fluorescent chemical sensor for biological amines” (The Curators of the University of Missouri, priority 2013, dated 2019).
At least one structure is not confirmed: it was looked up by name or label, or the drawing left a doubt.

Details: 1.0 μM in 0.1 N NaOH (pH 13); fluorescence standard; cited from earlier work

For `O=C1OC2(c3ccc(O)cc3Oc3cc(O)ccc32)c2ccccc21` [fluorescein], the “absolute Φfl” value is listed as 0.85.
